According to patent US12202905B2, “Methods and compositions relating to adenosine receptors” (Twist Bioscience Corporation, priority 2021, dated 2025):
At least one read-out could not be matched to a standard name with certainty.

Target: adenosine A2A receptor (Homo sapiens, UniProt P29274)
Assay: LANCE allosteric cAMP assay (titrated IgG, fixed NECA)
Type: cell-based
Details: fixed NECA concentration

B1: A2A-9: A2AR variant; VH CDR1-3 SEQ ID NO 14/103/192 (antibody, V domains shown)
VH: EVQLQQSGPGLVKPSQSLSLTCSVTGYSITSGYYWNWIRQFPGKKLEWMGYIRYDGSNNYNPSLKNRISITRDTSKNQFFLKLNSVTTDDTATYYCARVHHYYGSSYFDYWGQGTTLTVSS
VL: DIVMTQSQKFMSTSVGDRVSATCKASQNVGSSVAWFQQKPGQSPKALIYSTSYRYSGVPDRFTGSGSGTDFTLTISNVQSEDLAEYFCQQYNSYPLTFGAGTKLEIK
mode of action indicated by IC50: antagonist
